Values from PubChem BioAssay AID493246 (Drosophila RNAi Screening Center, 2011)
In all, the deposit lists about 21,000 reagents; shown is an unselected part of those with a known target gene and a result. In the full data, 429 (2%) were called active. 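Values are raw and not normalised between plates; calls rest on per-plate z-scores that were not deposited.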 Unmarked entries are inactive. No sequences are given here. Not given: the amount of reagent, the time to read-out.

Purpose: 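Genes fly cells need to grow and stay alive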 (primary screen)
Cell system: Drosophila Kc and S2R+ cells
Knock-down reagent: long dsRNA against Drosophila genes
Measured: 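Cell number per well after knock-down, printed as raw plate values; calls were based on per-plate z-scores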
Direction: Kc cell number and S2R+ cell number: higher = more cells remaining
Rule for the call: 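Counted as a hit if cell number falls by a z-score of at least 3 within its plate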

After knock-down of Ir48a [DRSC05301] the results were Kc cell number, rep 1 = 1.43e6; Kc cell number, rep 2 = 1.56e6; S2R+ cell number, rep 1 = 1.13e6; S2R+ cell number, rep 2 = 1.14e6.
With knock-down of CG8910 [DRSC07414], the record shows Kc cell number, rep 1 = 1.53e6; Kc cell number, rep 2 = 1.61e6; S2R+ cell number, rep 1 = 1.10e6; S2R+ cell number, rep 2 = 1.21e6.
mAcon1 [DRSC01853] showed Kc cell number, rep 1 = 1.84e6; Kc cell number, rep 2 = 1.94e6; S2R+ cell number, rep 1 = 1.52e6; S2R+ cell number, rep 2 = 4.13e5.
Against l(2)k14505 [DRSC03106], the values are Kc cell number, rep 1 = 1.34e6; Kc cell number, rep 2 = 1.39e6; S2R+ cell number, rep 1 = 1.06e6; S2R+ cell number, rep 2 = 1.16e6.
Against Fbp1 [DRSC11166], the values are Kc cell number, rep 1 = 1.55e6; Kc cell number, rep 2 = 1.53e6; S2R+ cell number, rep 1 = 1.14e6; S2R+ cell number, rep 2 = 1.32e6.
CG5704 [DRSC08572] showed Kc cell number, rep 1 = 1.37e6; Kc cell number, rep 2 = 1.47e6; S2R+ cell number, rep 1 = 1.25e6; S2R+ cell number, rep 2 = 1.25e6.
CG12688 (retired record) [DRSC17877] gave Kc cell number, rep 1 = 1.35e6; Kc cell number, rep 2 = 1.35e6; S2R+ cell number, rep 1 = 9.55e5; S2R+ cell number, rep 2 = 1.07e6.
With knock-down of CG12688 (retired record) [DRSC17878] the results were Kc cell number, rep 1 = 1.27e6; Kc cell number, rep 2 = 1.32e6; S2R+ cell number, rep 1 = 1.03e6; S2R+ cell number, rep 2 = 1.17e6.
Silencing of Cpr50Ca [DRSC05454] came out at: Kc cell number, rep 1 = 1.52e6; Kc cell number, rep 2 = 1.52e6; S2R+ cell number, rep 1 = 1.02e6; S2R+ cell number, rep 2 = 1.19e6.
After knock-down of Cpr50Ca [DRSC06372], the screen gave Kc cell number, rep 1 = 1.64e6; Kc cell number, rep 2 = 1.63e6; S2R+ cell number, rep 1 = 1.20e6; S2R+ cell number, rep 2 = 1.39e6.
Against Cpr50Ca [DRSC06375], the entry reads Kc cell number, rep 1 = 1.60e6; Kc cell number, rep 2 = 1.59e6; S2R+ cell number, rep 1 = 1.23e6; S2R+ cell number, rep 2 = 1.35e6.
Against Cpr65Av [DRSC09727] the deposit lists Kc cell number, rep 1 = 1.64e6; Kc cell number, rep 2 = 1.60e6; S2R+ cell number, rep 1 = 1.11e6; S2R+ cell number, rep 2 = 1.18e6.
Depletion of CG1304 [DRSC20494] came out at: Kc cell number, rep 1 = 1.51e6; Kc cell number, rep 2 = 1.55e6; S2R+ cell number, rep 1 = 1.11e6; S2R+ cell number, rep 2 = 1.19e6.
With knock-down of Paris [DRSC00451], the record shows Kc cell number, rep 1 = 1.15e6; Kc cell number, rep 2 = 1.41e6; S2R+ cell number, rep 1 = 3.91e5; S2R+ cell number, rep 2 = 2.26e5.
Against Hsc70-5 [DRSC07442] the deposit lists Kc cell number, rep 1 = 1.45e6; Kc cell number, rep 2 = 1.53e6; S2R+ cell number, rep 1 = 9.14e5; S2R+ cell number, rep 2 = 1.05e6.
CG32198 [DRSC09553] gave Kc cell number, rep 1 = 1.42e6; Kc cell number, rep 2 = 1.56e6; S2R+ cell number, rep 1 = 1.17e6; S2R+ cell number, rep 2 = 1.31e6.
With knock-down of Surf6 [DRSC15588] the results were Kc cell number, rep 1 = 1.64e6; Kc cell number, rep 2 = 1.74e6; S2R+ cell number, rep 1 = 1.08e6; S2R+ cell number, rep 2 = 1.19e6.
CG10038 [DRSC14178] gave Kc cell number, rep 1 = 1.49e6; Kc cell number, rep 2 = 1.56e6; S2R+ cell number, rep 1 = 1.22e6; S2R+ cell number, rep 2 = 1.31e6.
Ubr3 [DRSC17987] gave Kc cell number, rep 1 = 6.22e5; S2R+ cell number, rep 1 = 9.31e5.
Ubr3 [DRSC17997] showed Kc cell number, rep 1 = 1.56e6; Kc cell number, rep 2 = 1.52e6; S2R+ cell number, rep 1 = 1.03e6; S2R+ cell number, rep 2 = 1.13e6.
For alt [DRSC15315], the values are Kc cell number, rep 1 = 1.73e6; Kc cell number, rep 2 = 1.91e6; S2R+ cell number, rep 1 = 1.19e6; S2R+ cell number, rep 2 = 1.18e6.

Targets above whose gene name begins with U or u:
Ubr3 [DRSC17987] — Kc cell number, rep 1 = 6.22e5; S2R+ cell number, rep 1 = 9.31e5
Ubr3 [DRSC17997] — Kc cell number, rep 1 = 1.56e6; Kc cell number, rep 2 = 1.52e6; S2R+ cell number, rep 1 = 1.03e6; S2R+ cell number, rep 2 = 1.13e6
